Legend:
[1] = Pattern collapse rate, removal of composition by reduced pressure
[2] = Evaluation of pattern collapse rate (composition removed by heating); details: heated at 250° C. for 180 seconds, relative to water
[3] = Evaluation of residue (film thickness after application and after bake)
[4] = Evaluation of application property (coatability); design: key: A: uniform coating was formed; B: coating was formed but contained plaque; C: coating was not formed; details: for coatability after dissolution into IPA: 20% in IPA; for coatability after dissolution into IPA / coatability after dissolution into PGME / coatability after dissolution into water: 1000 rpm; for coatability after dissolution into IPA:water = 7:3: 20% in IPA:water = 7:3, 1000 rpm; for coatability after dissolution into PGME: 20% in PGME; for coatability after dissolution into water: 20% in water
[5] = 20% in IPA:water = 7:3, after application

OCCCCO [1,4-butanediol]
pattern collapse rate ([1]; 22% in IPA, reduced pressure 6.6 kPa/300 s): 0% | pattern collapse rate ([2]; 20% in IPA:water = 7:3): 3% | pattern collapse rate ([2]; 20% in IPA): 6% | post-bake thickness of residual film 110° C./60 s ([3]; 20% in IPA): 0 μm | post-bake thickness of residual film 130° C./60 s ([3]; 20% in IPA): 0 μm | film thickness ([3]; 20% in IPA, after application): 1.2 μm | post-bake thickness of residual film 110° C./60 s ([3]; 20% in IPA:water = 7:3): 0 μm | post-bake thickness of residual film 130° C./60 s ([3]; 20% in IPA:water = 7:3): 0 μm | film thickness [3, 5]: 1.2 μm | post-bake thickness of residual film 110° C./60 s ([3]; 20% in PGME): 0 μm | post-bake thickness of residual film 130° C./60 s ([3]; 20% in PGME): 0 μm | film thickness ([3]; 20% in PGME, after application): 1.2 μm | coatability after dissolution into IPA [4]: A | coatability after dissolution into IPA:water = 7:3 [4]: A | coatability after dissolution into PGME [4]: A | coatability after dissolution into water [4]: C

OCCCCCO [1,5-pentanediol]
pattern collapse rate ([1]; 25% in PGME, reduced pressure 5.3 kPa/301 s): 0% | pattern collapse rate ([2]; 20% in IPA:water = 7:3): 7% | pattern collapse rate ([2]; 20% in IPA): 6% | post-bake thickness of residual film 110° C./60 s ([3]; 20% in IPA): 0 μm | post-bake thickness of residual film 130° C./60 s ([3]; 20% in IPA): 0 μm | film thickness ([3]; 20% in IPA, after application): 1.2 μm | post-bake thickness of residual film 110° C./60 s ([3]; 20% in IPA:water = 7:3): 0 μm | post-bake thickness of residual film 130° C./60 s ([3]; 20% in IPA:water = 7:3): 0 μm | film thickness [3, 5]: 1.2 μm | post-bake thickness of residual film 110° C./60 s ([3]; 20% in PGME): 0 μm | post-bake thickness of residual film 130° C./60 s ([3]; 20% in PGME): 0 μm | film thickness ([3]; 20% in PGME, after application): 1.2 μm | coatability after dissolution into IPA [4]: A | coatability after dissolution into IPA:water = 7:3 [4]: A | coatability after dissolution into PGME [4]: A | coatability after dissolution into water [4]: C

CC(O)CCC(C)O (stereo not drawn) [2,5-hexanediol]
pattern collapse rate ([1]; 20% in IPA, reduced pressure 4.7 kPa/302 s): 0% | pattern collapse rate ([2]; 20% in IPA:water = 7:3): 4% | pattern collapse rate ([2]; 20% in IPA): 5% | post-bake thickness of residual film 110° C./60 s ([3]; 20% in IPA): 0 μm | post-bake thickness of residual film 130° C./60 s ([3]; 20% in IPA): 0 μm | film thickness ([3]; 20% in IPA, after application): 1.2 μm | post-bake thickness of residual film 110° C./60 s ([3]; 20% in IPA:water = 7:3): 0 μm | post-bake thickness of residual film 130° C./60 s ([3]; 20% in IPA:water = 7:3): 0 μm | film thickness [3, 5]: 1.2 μm | post-bake thickness of residual film 110° C./60 s ([3]; 20% in PGME): 0 μm | post-bake thickness of residual film 130° C./60 s ([3]; 20% in PGME): 0 μm | film thickness ([3]; 20% in PGME, after application): 1.2 μm | coatability after dissolution into IPA [4]: A | coatability after dissolution into IPA:water = 7:3 [4]: A | coatability after dissolution into PGME [4]: A | coatability after dissolution into water [4]: C

From patent US11169443B2, “Gap filling composition and pattern forming method using low molecular weight compound” (AZ Electronic Materials (Luxembourg) S.a.r.l., priority 2016, dated 2021)
